# Experimental data reported in paper PMC5534430, “Crystal structure of a Pseudomonas malonate decarboxylase holoenzyme hetero-tetramer” (Nature Communications, 2017).
# These are yes or no findings as the source states them, for the method shown. For part of these data: Binding calls can cover weak binding; strength is not graded here. For part of these data: In cells and extracts the contact can be indirect. For part of these data: Tags and fused reporters may be left off the sequences shown.
# B1: MdcD subunit of malonate decarboxylase (P. aeruginosa) (protein, UniProt Q9I6S7 1-287)
# chain: MTDVARLLALRSFTELGARQRARALLDAGSFRELLDPFAGVQSPWLERQGIVPQADDGVVVARGLLDGQPAVLAAIEGAFQGGSLGEVSGAKIAGALELAAEDNRNGVPTRALLLLETGGVRLQEANLGLAAIAEIQAAIVDLQRYQPVVAVIAGPVGCFGGMSIAAGLCSYVLVTREARLGLNGPQVIEQEAGIAEYDSRDRPFIWSLTGGEQRFASGLADAYLADDLDEVRTSVLAYFAKGLPARPRCRRAEDYLRRLGDLDTAEQPDAAGVRRLYQGLGQGDAT
# B2: MdcC subunit (acyl-carrier protein) of malonate decarboxylase (P. fluorescens), untagged (protein, UniProt Q4K4F7 1-99)
# chain: METLSFEFPAGQPGRGRALVGCVGSGDLEVLLEPGQPGKLSIQVQTSVNGSASRWQHLFERLFDGQTPPALLIDIHDFGATPGVVRLRLEQGFEEIGHD
# Legend:
# [1] = target: MdcE subunit of malonate decarboxylase (P. aeruginosa), N-terminal His tag (P. aeruginosa); experiment: crystal structure; MDC hetero-tetramer (MdcA, MdcD, MdcE of P. aeruginosa, MdcC of P. fluorescens): malonate complex at 2.2 Å and CoA complex at 3.0 Å; 20% PEG 3350, 8% Tacsimate; both purified
# [2] = target: MdcE subunit of malonate decarboxylase (P. aeruginosa), N-terminal His tag (P. aeruginosa); experiment: crystal structure; MdcD–MdcE complex, 1.86 Å, selenomethionyl SAD; two copies in the asymmetric unit; crystals at 20 °C, 0.1 M Bis-Tris pH 5.8, 18% PEG 3350, 0.2 M ammonium acetate; both purified
# [3] = target: MdcE with deletion of the C-terminal residues 242–268, His-tagged (P. aeruginosa); experiment: pull-down; nickel pull-down; only MdcE carries a His tag; wild-type and mutant subunits expressed as for the wild-type hetero-tetramer
Binder,binding [1],binding [2],binding [3]
B1,binds,binds,–
B2,–,–,no binding
